The supplement of paper PMC10373366
Structures can show the parent of a compound that is named as a salt. The list shows a part of the results. Single values are uncertain, as repeats are few or missing.

These molecules were tested on A2780 (assay: cell growth inhibition ratio vs untreated control (CCK8); higher = stronger inhibition of cell viability). Settings: 10 µM; 48 h.
Description: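 Natural product library (Topscience) screened at 10 µM final concentration for 48 h on ovarian cancer A2780 cells and patient-derived ovarian cancer cells (PDC) in 96-well plates; viability read by CCK8 and reported as inhibition ratio (%) relative to untreated control. Single-dose primary screen.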

Structure (SMILES) | cell growth inhibition ratio [%]
O=C(O)c1cccnc1 [Nicotinic acid] | 7.43
CN[C@@H](C)[C@H]1[C@H](O)C[C@@]2(C)[C@@H]3CC[C@H]4C(C)(C)[C@@H](NC)CC[C@@]45C[C@@]35CC[C@]12C [Cyclovirobuxin D] | 1.23
NC[C@H]1O[C@H](O[C@H]2[C@H](O)[C@@H](O[C@H]3O[C@H](CO)[C@@H](O)[C@H](N)[C@H]3O)[C@H](N)C[C@@H]2N)[C@H](O)[C@@H](O)[C@@H]1O [Kanamycin sulfate] | -0.186
O=c1cc(-c2ccccc2)oc2ccccc12 [Flavone] | 5.41
C/C=C1\[C@H]2C=C(C)C[C@]1(N)c1ccc(=O)[nH]c1C2 [(-)-Huperzine A (HupA)] | -0.716
C[C@@H]1O[C@@H](Oc2cc(O)c3c(=O)c(O[C@@H]4O[C@@H](C)[C@H](O)[C@@H](O)[C@H]4O)c(-c4ccc(O)cc4)oc3c2)[C@H](O)[C@H](O)[C@H]1O [Kaempferitrin] | 26.4
CCCCCC1C(=O)CCC1CC(=O)OC (stereo not given) [Methyl Dihydrojasmonate;Hedione] | 14.5
CC(C)C1=CC2=CC[C@@H]3[C@](C)(CCC[C@@]3(C)C(=O)O)[C@H]2CC1 [Abietic Acid] | 7.24
COc1ccc(-c2oc3c(CC=C(C)C)c(O)cc(O)c3c(=O)c2O)cc1 [Icaritin] | 50.8
C=C1C[C@@]2(O)O[C@@]3(C[C@H]2C(C)C)[C@@H](C)CC[C@@H]13 [Curcumol] | 1.67
C[n+]1cc2c3c(ccc2c2ccc4cc5c(cc4c21)OCO5)OCO3 [Sanguinarine chloride] | 90.9
O=C1C(=C(O)C=Cc2ccc(O)cc2)C(O)=C([C@@H]2O[C@H](CO)[C@@H](O)[C@H](O)[C@H]2O)C(=O)C1(O)[C@@H]1O[C@H](CO)[C@@H](O)[C@H](O)[C@H]1O (stereo not given in full) [Hydroxysafflor yellow A] | 11.1
C[C@]12C[C@H](O)[C@H]3[C@@H](CCC4=CC(=O)CC[C@@]43C)[C@@H]1CC[C@@H]2C(=O)CO [Corticosterone] | -1.68
CC(C)=CCC[C@](C)(O)[C@H]1CC[C@]2(C)[C@@H]1[C@H](O)C[C@@H]1[C@@]3(C)CC[C@H](O)C(C)(C)[C@@H]3[C@@H](O[C@@H]3O[C@H](CO)[C@@H](O)[C@H](O)[C@H]3O[C@@H]3O[C@@H](C)[C@H](O)[C@@H](O)[C@H]3O)C[C@]12C [Ginsenoside Rg2] | -2.11
NCCC[C@H](N)C(=O)O [L-Ornithine] | -9.97
NC(=O)c1ccc[n+]([C@@H]2O[C@H](COP(=O)([O-])OP(=O)(O)OC[C@H]3O[C@@H](n4cnc5c(N)ncnc54)[C@H](O)[C@@H]3O)[C@@H](O)[C@H]2O)c1 [Cozymasei(NAD+)] | -1.94
O=C(O[C@@H]1Cc2c(O)cc(O)cc2O[C@H]1c1cc(O)c(O)c(O)c1)c1cc(O)c(O)c(O)c1 [(-)-Gallocatechin gallate] | 10.8
CC(C)c1cc(C(C)C)c(CC(=O)NS(=O)(=O)Oc2c(C(C)C)cccc2C(C)C)c(C(C)C)c1 [Avasimibe] | 45.8
OC[C@@H](O)[C@@H](O)[C@@H](O)[C@@H](O)CO [Allitol] | 4.92
CN1CCC[C@H]1c1cccnc1 [Nicotine] | 1.42

3 compounds out of the list, sorted by count of non-hydrogen atoms, ascending:
Structure (SMILES) | cell growth inhibition ratio [%]
O=C(O[C@@H]1Cc2c(O)cc(O)cc2O[C@H]1c1cc(O)c(O)c(O)c1)c1cc(O)c(O)c(O)c1 [(-)-Gallocatechin gallate] | 10.8
CC(C)c1cc(C(C)C)c(CC(=O)NS(=O)(=O)Oc2c(C(C)C)cccc2C(C)C)c(C(C)C)c1 [Avasimibe] | 45.8
NC(=O)c1ccc[n+]([C@@H]2O[C@H](COP(=O)([O-])OP(=O)(O)OC[C@H]3O[C@@H](n4cnc5c(N)ncnc54)[C@H](O)[C@@H]3O)[C@@H](O)[C@H]2O)c1 [Cozymasei(NAD+)] | -1.94

Later entries:

Structure (SMILES) | cell growth inhibition ratio [%]
C=C1C(=O)O[C@@H]2C[C@@]3(C)CCC[C@H](C)C3=C[C@H]12 [Helenine] | 9.56
CC(C)=CCC[C@](C)(O[C@@H]1O[C@H](CO)[C@@H](O)[C@H](O)[C@H]1O)[C@H]1CC[C@]2(C)[C@@H]1[C@H](O)C[C@@H]1[C@@]3(C)CC[C@H](O[C@@H]4O[C@H](CO)[C@@H](O)[C@H](O)[C@H]4O)C(C)(C)[C@@H]3CC[C@]12C [Ginsenoside F2] | 12.6
O=C(O)CCc1ccc(O)cc1O [Hydroumbellic acid] | 12.3
O=c1cc[nH]c(=O)[nH]1 [Uracil] | 12.3
C/C1=C2N=C(/C=C3N=C(/C(C)=C4\[N-]C(C(CC(N)=O)C4(C)CCC(=O)NCC(C)OP(=O)([O-])OC4C(CO)OC(n5cnc6cc(C)c(C)cc65)C4O)C4(C)N=C1C(CCC(N)=O)C4(C)CC(N)=O)C(CCC(N)=O)C\3(C)C)C(CCC(N)=O)C/2(C)CC(N)=O.[CH3-].[Co+3] (stereo not given) [Methylcobalamin] | 8.44
C[C@@H]1O[C@H]2O[C@H]3[C@@H](OC[C@H](O)[C@@H]3O)OC(=O)[C@]34CCC(C)(C)C[C@H]3C3=CC[C@H]5[C@@]6(C)C[C@H](O)[C@H](O[C@@H]7O[C@H](CO)[C@@H](O)[C@H](O)[C@H]7O[C@@H]7OC[C@H](OC(=O)C[C@](C)(O)CC(=O)O[C@@H]1[C@@H](O[C@@H]1OC[C@@H](O)[C@H](O)[C@H]1O)[C@H]2O)[C@H](O)[C@H]7O)[C@@](C)(CO)[C@@H]6CC[C@@]5(C)[C@]3(C)CC4 [Tubeimoside I] | 78.2
COc1ccc(-c2coc3cc(O)cc(O)c3c2=O)cc1 [Biochanin A] | 15.2
C=C(C)[C@@H]1CC[C@]2(C=O)CC[C@]3(C)[C@H](CC[C@@H]4[C@@]5(C)CC[C@H](O)C(C)(C)[C@@H]5CC[C@]43C)[C@@H]12 [Betulinaldehyde] | 3.86
O=C(O)c1ccccc1 [Benzoic acid] | 9.01
C[C@H]1[C@H](C)CC[C@]2(C(=O)O[C@@H]3O[C@H](CO[C@@H]4O[C@H](CO)[C@@H](O[C@@H]5O[C@@H](C)[C@H](O)[C@@H](O)[C@H]5O)[C@H](O)[C@H]4O)[C@@H](O)[C@H](O)[C@H]3O)CC[C@]3(C)C(=CC[C@@H]4[C@@]5(C)C[C@@H](O)[C@H](O)[C@@](C)(CO)[C@@H]5[C@H](O)C[C@]43C)[C@H]12 [Madecassoside] | 9.12
Cc1c(C)c2c(c(C)c1O)CC[C@@](C)(CCC[C@H](C)CCC[C@H](C)CCCC(C)C)O2 [Vitamin E] | 10.2
N[C@@H](Cc1c[nH]c2ccc(O)cc12)C(=O)O [L-5-Hydroxytryptophan] | 10.2
COC(=O)[C@@H]1[C@H]2C[C@H]3c4[nH]c5ccccc5c4CCN3C[C@@H]2CC[C@@H]1O [Yohimbine hydrochloride] | -1.45
COC(=O)c1ccc(O)c(O)c1 [Methyl protocatechuate] | -16.7
C=C1C[C@@]23CC[C@H]4[C@@](C)(CCC[C@@]4(C)C(=O)O[C@@H]4O[C@H](CO)[C@@H](O)[C@H](O)[C@H]4O)[C@@H]2CC[C@]1(O[C@@H]1O[C@H](CO)[C@@H](O)[C@H](O[C@@H]2O[C@H](CO)[C@@H](O)[C@H](O)[C@H]2O)[C@H]1O[C@@H]1O[C@H](CO)[C@@H](O)[C@H](O)[C@H]1O)C3 [Rebaudioside A] | 6.75
C[C@@H]1O[C@@H](O[C@@H]2[C@H](O)[C@@H](O)[C@H](O[C@H]3CC[C@@]4(C)C(CC[C@]5(C)C4C=C[C@]46OC[C@@]7(CCC(C)(C)CC74)[C@@H](O)C[C@]65C)C3(C)C)O[C@@H]2CO[C@@H]2O[C@H](CO)[C@@H](O)[C@H](O)[C@H]2O)[C@H](O)[C@H](O)[C@H]1O (stereo not given in full) [Saikosaponin C] | -0.000153
C[N+](C)(C)CC(O)CC(=O)[O-] (racemic) [DL-Carnitine] | 3.36
O=C(O)[C@@H](O)[C@H](O)[C@H](O)[C@@H](O)C(=O)O [Mucic Acid] | 5.04
O=c1ccc2ccc(O)c(O)c2o1 [Daphnetin] | -9.81
CCC(=O)O[C@]1(C(=O)CO)CC[C@H]2[C@@H]3CCC4=CC(=O)CC[C@]4(C)[C@H]3CC[C@@]21C [17 alpha-propionate] | 18.8
